Taken from: PubChem BioAssay AID1259254 (NCATS, 2017)
Shown is one part, drawn at random, of about 59,000 deposited reagents. Of all reagents, about 1,550 (2.6%) are marked active. 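G2 share is only a proxy for re-replication; each gene was hit by three separate siRNAs, and active genes were retested.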 Raw values are not corrected between plates. The numbers tell different reagents against one gene apart. The record does not give: the amount of reagent.

- Purpose: 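Gene knock-downs that lead to re-replication, shown by excess G2 DNA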 (primary screen)
- Cell system: human HCT116 colorectal cancer cells
- Reagents: single siRNA against human genes
- Time to read-out: 3 days
- Measured: 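Imaged Hoechst DNA stain sorts each cell into a cycle phase by DNA amount; per plate, G2 fraction set to 0% for non-targeting and 100% for GMNN siRNA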
- Reading the numbers: G2 robust z-score and G2 cells, % of GMNN control: higher = more G2 cells, more excess DNA replication; raw share of cells in G2: higher = larger share of cells with G2 DNA content
- Hit rule: 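Active siRNAs have a G2 robust z of 5 or more median absolute deviations over the median, which in these data means about 38% or higher of GMNN control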

gene	siRNA no.	G2 robust z-score	G2 cells, % of GMNN control	raw share of cells in G2 (%)	activity call
NCOA2	1	-0.715	-2.07	2.84	inactive
NCOA2	2	-0.0478	2.63	7.16	inactive
NCOA2	3	-0.592	-1.2	2.84	inactive
SFRP4	1	2.29	19.1	13.1	inactive
SFRP4	2	0.222	4.53	6.01	inactive
SFRP4	3	-0.831	-2.88	2.31	inactive
SLC35F6	1	0.552	6.85	6.06	inactive
SLC35F6	2	0.871	9.1	8.1	inactive
SLC35F6	3	0.764	8.35	5.95	inactive
EXOC3	1	2.2	18.4	12.2	inactive
EXOC3	2	1.08	10.6	8.5	inactive
EXOC3	3	-0.184	1.67	3.8	inactive
AGT	1	-0.563	-0.991	4.72	inactive
AGT	2	0.912	9.39	7.49	inactive
AGT	3	6.05	45.6	20.2	active
MGAT3	1	-0.294	0.901	5.71	inactive
MGAT3	2	-1	-4.1	1.84	inactive
MGAT3	3	2.09	17.7	12.5	inactive
METTL15	1	0.517	6.6	5.97	inactive
METTL15	2	-0.237	1.3	3.4	inactive
METTL15	3	-0.186	1.66	3.29	inactive
HMGCR	1	2.04	17.3	10.6	inactive
HMGCR	2	3.51	27.7	15.1	inactive
HMGCR	3	1.58	14.1	11.1	inactive
CCDC121	1	0.0765	3.51	6.11	inactive
CCDC121	2	0.927	9.49	8.86	inactive
CCDC121	3	-1.02	-4.18	1.59	inactive
GPHB5	1	4.39	33.8	17.3	inactive
GPHB5	2	2.96	23.8	15.2	inactive
GPHB5	3	-0.146	1.94	6.57	inactive
CC2D2B	1	0.817	8.72	6.76	inactive
CC2D2B	2	-0.125	2.09	4.31	inactive
CC2D2B	3	-1.01	-4.13	2.86	inactive
ISCA1	1	-0.0491	2.62	4.98	inactive
ISCA1	2	-0.814	-2.76	2.64	inactive
ISCA1	3	0.031	3.19	3.37	inactive
PNPLA10P	1	-0.098	2.28	4.5	inactive
PNPLA10P	2	5.02	38.3	17	active
PNPLA10P	3	0.214	4.47	4.45	inactive
SLC22A12	1	1.65	14.6	12.4	inactive
SLC22A12	2	4.6	35.3	20.1	inactive
SLC22A12	3	-0.0949	2.3	5.35	inactive
TXNL4B	1	0.202	4.39	6.16	inactive
TXNL4B	2	-1.22	-5.63	3.96	inactive
TXNL4B	3	3.44	27.2	14.2	inactive
TGM7	1	0.0407	3.25	5.71	inactive
TGM7	2	-0.605	-1.29	4.41	inactive
TGM7	3	-0.129	2.06	6.63	inactive
HPN	1	4.04	31.4	16.5	inactive
HPN	2	7.51	55.8	24.7	active
HPN	3	-0.74	-2.24	3.08	inactive
KAZN	1	0.115	3.78	4.59	inactive
KAZN	2	4.26	32.9	18.4	inactive
KAZN	3	2.09	17.7	11.9	inactive
KAZN	4	0.497	6.47	6.81	inactive
KAZN	5	-0.298	0.872	4.13	inactive
KAZN	6	1.52	13.7	8.95	inactive
RTN4RL2	1	2.31	19.2	12.5	inactive
RTN4RL2	2	-0.459	-0.263	4.19	inactive
RTN4RL2	3	-0.674	-1.77	5.14	inactive
AP5Z1	1	0.165	4.13	7.2	inactive
AP5Z1	2	2.55	20.9	12.7	inactive
AP5Z1	3	0.314	5.18	5.29	inactive
PPIP5K1	1	-1.15	-5.16	3	inactive
PPIP5K1	2	-0.48	-0.409	3.77	inactive
PPIP5K1	3	0.21	4.45	5.02	inactive
CIB2	1	13.2	95.7	35.9	active
CIB2	2	0.637	7.45	6.55	inactive
CIB2	3	-1.06	-4.48	2.15	inactive
MAP7D1	1	1.44	13.1	7.31	inactive
MAP7D1	2	-0.957	-3.77	3.08	inactive
MAP7D1	3	0.112	3.76	5.7	inactive
SCP2	1	0.057	3.37	6.82	inactive
SCP2	2	0.642	7.49	6.44	inactive
SCP2	3	1.9	16.3	10.1	inactive
PIK3R2	1	1.55	13.9	9.31	inactive
PIK3R2	2	0.026	3.15	4.44	inactive
PIK3R2	3	1.26	11.9	7.88	inactive
FAAP100	1	-0.498	-0.536	4.22	inactive
FAAP100	2	1.53	13.7	10.3	inactive
FAAP100	3	-0.0711	2.47	3.05	inactive
PBX3	1	0.313	5.17	5.51	inactive
PBX3	2	0.0511	3.33	6.4	inactive
PBX3	3	-0.00569	2.93	4.17	inactive
ALX3	1	-0.485	-0.447	4.91	inactive
ALX3	2	0.687	7.8	7.38	inactive
ALX3	3	5.76	43.5	20.2	active

Active calls, among the entries above:
gene	siRNA no.	G2 robust z-score	G2 cells, % of GMNN control	raw share of cells in G2 (%)	activity call
AGT	3	6.05	45.6	20.2	active
PNPLA10P	2	5.02	38.3	17	active
HPN	2	7.51	55.8	24.7	active
CIB2	1	13.2	95.7	35.9	active
ALX3	3	5.76	43.5	20.2	active
